Literature values in patent US7803402B2, “Pharmaceutical preparations” (priority 2002, dated 2010).
At least one structure is not confirmed: it was looked up by name or label, or the drawing left a doubt.

Columns and labels:
Haemophilus influenzae = conditions: including penicillinase-producing strains
[1] = system: Moraxella (Branhamella) catarrhalis; conditions: including penicillinase-producing strains
Neisseria gonorrhoeae = conditions: including penicillinase-producing strains
staphylococci = conditions: most strains
enterococci = conditions: most strains
Listeria spp. = conditions: most strains

For `C=CC1=C(C(=O)O)N2C(=O)[C@@H](NC(=O)/C(=N\OCC(=O)O)c3csc(N)n3)[C@H]2SC1` [Cefixime], the susceptibility to cefixime (Haemophilus influenzae) is given as “sensitive”, the susceptibility to cefixime [1] is given as “sensitive” and the susceptibility to cefixime (Neisseria gonorrhoeae) is given as “sensitive”. The susceptibility to cefixime (streptococci) was “sensitive”, the susceptibility to cefixime (staphylococci) was “are not” and the susceptibility to cefixime (enterococci) was “are not”. The susceptibility to cefixime (Listeria spp.) was “are not”.
